Each structure is given as a SMILES string. The list is a part of this screen's results and no random one: it is rich in T/C values a quarter to a half above the control, in often repeated tests (any T/C) and in doses without a T/C. Other doses and runs of a compound stand elsewhere. T/C gives the treated animals as a percentage of the vehicle group. Some entries give survivors of the animals treated and no T/C: the source holds a T/C of zero for them, seemingly a mark for toxic or unscored doses. Some doses without a T/C left all or most animals alive at the check, yet need not have been tolerated: survival well below the control is almost never listed, so the zero probably covers shortened survival too. Survivors were counted at the toxicity check, usually on the fifth day, unless a day is given; later deaths do not show. Schedules are NCI's codes, taken here to give the interval after Q, in days (D) or hours (H), and the number of doses after X. Some schedule codes hold Z or #, which are not explained here. Where survival is the endpoint, this PubChem deposit counts one and a half times the control or more as active, and values a quarter to a half above the control carry no call in these data; other NCI protocols may use other cut-offs. Some T/C values carry the count of animals alive at the toxicity check (mostly the fifth day); where none is given, no animal had died by that day.

For the experiment, the system named is L1210 leukemia ip in BDF1 mice, survival T/C. As to the kind of experiment: NCI In Vivo Anticancer Drug Screen. Data for tumor model L1210 Leukemia (intraperitoneal) in B6D2F1 (BDF1) mice. The note with it: T/C endpoint: mean survival time, higher T/C = longer survival.

Turning to `O=NN(CCCl)C(=O)NC1CCSc2ccccc21` (stereo unspecified), the T/C is, setting by setting: (dose: 12.0 mg/kg/injection, schedule: Q01DX001 (ip), vehicle: other) 145 % of control; (dose: 135.0 mg/kg/injection, schedule: Q01DX001 (ip), vehicle: other) 142 % of control [9 of 10 alive]. Also, the survivor count (dose: 93.0 mg/kg/injection, schedule: Q01DX001 (ip), vehicle: other) was 6 of 6; the survivor count (dose: 200.0 mg/kg/injection, schedule: Q01DX001 (ip), vehicle: other) is recorded as 6 of 10; the survivor count (dose: 250.0 mg/kg/injection, schedule: Q01DX001 (ip), vehicle: other) was 0 of 6; the survivor count (dose: 375.0 mg/kg/injection, schedule: Q01DX001 (ip), vehicle: other) was 0 of 6.
As to `Cc1[nH]c(=O)[nH]c(=O)c1Br`, the survivor count (dose: 300.0 mg/kg/injection, schedule: Q01DX Z (ip), vehicle: methylcellulose (MC)) is recorded as 6 of 6.
For `NCCCCC(=O)NC(CCCCNC(=O)OCc1ccccc1)C(=O)NCCCCC(=O)NC(CCCCNC(=O)OCc1ccccc1)C(=O)NCCCCC(=O)NC(CCCCNC(=O)OCc1ccccc1)C(=O)NCCCCC(=O)NC(CCCCNC(=O)OCc1ccccc1)C(=O)NCCCCC(=O)NC(CCCCNC(=O)OCc1ccccc1)C(=O)O` (stereo unspecified), the survivor count (dose: 200.0 mg/kg/injection, schedule: Q01DX001 (ip), vehicle: saline) is reported as 0 of 6 and the survivor count (dose: 400.0 mg/kg/injection, schedule: Q01DX001 (ip), vehicle: saline) is listed as 0 of 6.
Regarding `O=C(NO)c1cc(Cl)c(C(=O)NO)cc1Cl`, the survivor count (dose: 400.0 mg/kg/injection, schedule: Q01DX009 (ip), vehicle: other) is listed as 6 of 6.
Consider `C1CC2CC1C1CNCC21` (stereo unspecified), for which the survivor count (dose: 200.0 mg/kg/injection, schedule: Q04DX002 (ip), vehicle: Klucel (hydroxypropylcellulose) (HPC)) is 1 of 3.

Values taken from PubChem BioAssay AID248 (DTP/NCI, 2004).
